Test results taken from publication PMC4091705.
Results are given in words; binding and its absence hold for the method and conditions named. In cells and extracts the contact can be indirect. A yes stands for co-enrichment or nearness to the bait. Other partners may have been found.

Sequences of proteins named here, by UniProt entry; tags and fusion partners are left off.
UniProt Q17551: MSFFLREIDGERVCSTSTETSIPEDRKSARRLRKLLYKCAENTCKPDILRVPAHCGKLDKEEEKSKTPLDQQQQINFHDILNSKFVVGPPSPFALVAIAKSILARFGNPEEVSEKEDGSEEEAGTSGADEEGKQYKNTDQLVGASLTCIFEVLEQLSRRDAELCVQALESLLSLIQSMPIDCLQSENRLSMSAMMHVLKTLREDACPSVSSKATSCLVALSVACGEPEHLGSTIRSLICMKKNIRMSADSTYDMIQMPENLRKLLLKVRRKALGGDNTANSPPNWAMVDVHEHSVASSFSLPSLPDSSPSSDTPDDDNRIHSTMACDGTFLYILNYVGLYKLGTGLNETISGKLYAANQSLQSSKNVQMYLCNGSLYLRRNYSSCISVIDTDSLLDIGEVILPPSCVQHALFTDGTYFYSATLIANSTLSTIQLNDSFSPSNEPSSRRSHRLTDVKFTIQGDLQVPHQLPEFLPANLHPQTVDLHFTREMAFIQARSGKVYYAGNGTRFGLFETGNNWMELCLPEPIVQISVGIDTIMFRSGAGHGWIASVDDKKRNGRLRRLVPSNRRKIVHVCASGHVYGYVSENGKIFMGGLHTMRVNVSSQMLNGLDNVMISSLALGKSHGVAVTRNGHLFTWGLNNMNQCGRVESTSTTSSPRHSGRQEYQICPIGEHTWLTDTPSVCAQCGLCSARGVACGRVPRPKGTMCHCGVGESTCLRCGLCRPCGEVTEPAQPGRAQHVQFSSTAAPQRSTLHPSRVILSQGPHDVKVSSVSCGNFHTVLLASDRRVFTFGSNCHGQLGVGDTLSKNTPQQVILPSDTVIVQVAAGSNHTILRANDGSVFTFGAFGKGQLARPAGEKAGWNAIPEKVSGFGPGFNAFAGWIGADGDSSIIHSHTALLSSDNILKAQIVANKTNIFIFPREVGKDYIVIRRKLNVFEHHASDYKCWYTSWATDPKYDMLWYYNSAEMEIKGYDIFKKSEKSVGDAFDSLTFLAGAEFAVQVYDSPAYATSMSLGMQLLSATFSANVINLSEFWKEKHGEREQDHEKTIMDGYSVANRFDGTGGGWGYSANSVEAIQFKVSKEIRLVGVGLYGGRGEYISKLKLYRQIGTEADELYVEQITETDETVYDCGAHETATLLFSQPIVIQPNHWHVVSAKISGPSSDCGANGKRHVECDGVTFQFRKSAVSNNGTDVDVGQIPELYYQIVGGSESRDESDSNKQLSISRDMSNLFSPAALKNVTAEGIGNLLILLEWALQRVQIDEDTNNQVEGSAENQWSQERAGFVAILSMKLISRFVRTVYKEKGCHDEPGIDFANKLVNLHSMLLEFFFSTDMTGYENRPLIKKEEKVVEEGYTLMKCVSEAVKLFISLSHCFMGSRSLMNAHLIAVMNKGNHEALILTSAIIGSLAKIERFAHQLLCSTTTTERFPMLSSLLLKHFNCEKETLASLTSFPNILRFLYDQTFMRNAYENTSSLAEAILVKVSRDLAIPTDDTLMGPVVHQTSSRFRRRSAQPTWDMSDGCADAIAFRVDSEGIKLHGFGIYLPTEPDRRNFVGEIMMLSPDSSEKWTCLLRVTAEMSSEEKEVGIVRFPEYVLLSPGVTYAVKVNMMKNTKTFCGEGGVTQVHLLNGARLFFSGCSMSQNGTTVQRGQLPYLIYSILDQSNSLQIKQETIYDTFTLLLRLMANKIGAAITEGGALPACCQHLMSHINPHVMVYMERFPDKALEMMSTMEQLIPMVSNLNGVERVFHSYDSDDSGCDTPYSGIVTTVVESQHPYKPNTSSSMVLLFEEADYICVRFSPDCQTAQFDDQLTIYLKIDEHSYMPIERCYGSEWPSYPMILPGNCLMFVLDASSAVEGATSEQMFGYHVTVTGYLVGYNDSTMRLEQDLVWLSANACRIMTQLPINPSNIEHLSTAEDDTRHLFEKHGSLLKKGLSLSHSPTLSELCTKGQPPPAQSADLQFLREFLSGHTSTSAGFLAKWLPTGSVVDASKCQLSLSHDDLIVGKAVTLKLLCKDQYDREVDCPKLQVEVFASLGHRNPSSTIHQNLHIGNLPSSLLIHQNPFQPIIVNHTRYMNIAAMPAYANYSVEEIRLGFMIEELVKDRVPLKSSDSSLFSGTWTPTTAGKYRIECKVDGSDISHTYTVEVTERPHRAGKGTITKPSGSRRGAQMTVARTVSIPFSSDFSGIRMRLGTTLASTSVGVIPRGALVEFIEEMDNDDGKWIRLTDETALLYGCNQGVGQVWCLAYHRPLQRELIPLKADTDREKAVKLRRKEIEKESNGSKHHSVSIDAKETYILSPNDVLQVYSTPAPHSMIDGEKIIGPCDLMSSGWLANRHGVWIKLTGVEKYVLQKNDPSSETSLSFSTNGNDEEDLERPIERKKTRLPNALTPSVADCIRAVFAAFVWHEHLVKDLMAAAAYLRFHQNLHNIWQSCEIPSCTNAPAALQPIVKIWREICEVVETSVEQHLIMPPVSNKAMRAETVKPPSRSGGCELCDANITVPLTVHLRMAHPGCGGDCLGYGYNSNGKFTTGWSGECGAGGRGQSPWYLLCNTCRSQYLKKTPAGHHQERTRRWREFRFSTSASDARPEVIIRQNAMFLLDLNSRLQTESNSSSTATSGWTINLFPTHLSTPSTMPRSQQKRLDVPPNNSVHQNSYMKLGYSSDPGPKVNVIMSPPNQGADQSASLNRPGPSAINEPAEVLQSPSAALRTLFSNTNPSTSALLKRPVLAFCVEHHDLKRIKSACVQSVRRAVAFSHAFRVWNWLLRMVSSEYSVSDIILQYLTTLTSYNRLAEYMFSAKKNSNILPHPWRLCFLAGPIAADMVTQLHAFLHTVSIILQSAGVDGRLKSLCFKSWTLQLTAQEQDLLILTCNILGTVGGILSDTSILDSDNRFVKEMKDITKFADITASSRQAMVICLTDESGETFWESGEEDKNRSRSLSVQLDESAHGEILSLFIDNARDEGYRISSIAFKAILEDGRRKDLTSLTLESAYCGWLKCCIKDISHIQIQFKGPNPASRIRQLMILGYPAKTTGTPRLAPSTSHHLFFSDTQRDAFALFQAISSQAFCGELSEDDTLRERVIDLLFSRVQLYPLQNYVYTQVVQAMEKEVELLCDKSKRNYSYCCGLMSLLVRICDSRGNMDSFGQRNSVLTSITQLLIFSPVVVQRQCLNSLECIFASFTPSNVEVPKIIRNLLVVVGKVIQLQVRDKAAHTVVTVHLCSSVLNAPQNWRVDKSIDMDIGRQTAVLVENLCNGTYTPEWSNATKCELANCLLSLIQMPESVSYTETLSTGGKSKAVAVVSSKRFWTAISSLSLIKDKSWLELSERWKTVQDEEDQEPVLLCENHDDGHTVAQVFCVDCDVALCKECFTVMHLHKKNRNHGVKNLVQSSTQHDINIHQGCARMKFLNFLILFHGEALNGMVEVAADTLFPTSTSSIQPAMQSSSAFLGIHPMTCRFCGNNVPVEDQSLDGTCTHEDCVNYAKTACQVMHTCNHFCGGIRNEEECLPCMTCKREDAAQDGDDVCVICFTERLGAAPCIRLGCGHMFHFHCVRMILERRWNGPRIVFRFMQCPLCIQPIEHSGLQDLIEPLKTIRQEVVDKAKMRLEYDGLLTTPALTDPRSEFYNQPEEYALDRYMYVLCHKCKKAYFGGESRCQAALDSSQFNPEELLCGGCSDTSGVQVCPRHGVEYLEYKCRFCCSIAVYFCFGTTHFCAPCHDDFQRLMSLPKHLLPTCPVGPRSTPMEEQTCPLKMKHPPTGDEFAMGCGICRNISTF

Biological target: Regulator of Presynaptic Morphology 1 (RPM-1) fused with Green Fluorescent Protein (C. elegans) (UniProt Q17551)
Test: affinity purification with mass spectrometry; RPM-1::GFP purified from whole worm lysate with an anti-GFP antibody; binding proteins identified by mass spectrometry and de novo peptide sequencing

With “abnormal nuclear Anchorage 1 (ANC-1) (from UniProt Q9N4M4 1-8545)” the binding was “binds”.
